Data published in US20250208146A1 (UNIVERSITY OF FLORIDA RESEARCH FOUNDATION, published 2025).
Results are given in words; binding and its absence hold for the method and conditions named. Some results given as binding are weak or reduced against the parent protein; the word gives no strength.

Chains of the proteins cited; added tags and fusions are not shown. Lines headed by an entry give the natural chain unless they say otherwise; changes in a name come on top.
UniProt P01009: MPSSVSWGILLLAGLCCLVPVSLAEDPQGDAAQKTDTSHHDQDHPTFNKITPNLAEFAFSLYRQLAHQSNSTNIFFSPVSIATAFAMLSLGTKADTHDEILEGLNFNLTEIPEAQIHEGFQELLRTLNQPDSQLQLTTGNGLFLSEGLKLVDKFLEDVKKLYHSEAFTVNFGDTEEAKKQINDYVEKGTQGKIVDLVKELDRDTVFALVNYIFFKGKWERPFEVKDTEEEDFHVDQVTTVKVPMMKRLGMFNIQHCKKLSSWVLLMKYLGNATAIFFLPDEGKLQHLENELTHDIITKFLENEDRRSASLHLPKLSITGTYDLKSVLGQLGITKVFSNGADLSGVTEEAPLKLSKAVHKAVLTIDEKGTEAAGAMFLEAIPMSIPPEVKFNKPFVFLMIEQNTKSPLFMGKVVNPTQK

Assays:
[1] = biological target: M Alpha-1 Antitrypsin (M-AAT) (human) (UniProt P01009); assay: dot blot, purified proteins (FIG. 3)
[2] = biological target: M Alpha-1 Antitrypsin (M-AAT) (human) (UniProt P01009); assay: native Western blot of plasma (FIG. 4)
[3] = biological target: M Alpha-1 Antitrypsin (M-AAT) (human) (UniProt P01009); assay: dot blot, 3 µg purified protein, TBS-T (FIG. 3)
[4] = biological target: M Alpha-1 Antitrypsin (M-AAT) (human) (UniProt P01009); assay: Western blot, denaturing SDS-PAGE, purified proteins (FIG. 1)
[5] = biological target: M Alpha-1 Antitrypsin (M-AAT) (human) (UniProt P01009); assay: Western blot, purified proteins probed with purified antibody (FIG. 1)
[6] = biological target: M Alpha-1 Antitrypsin (M-AAT) (human) (UniProt P01009); assay: sandwich ELISA, M-AAT specific monoclonal adsorbed to wells, purified M-AAT or plasma/serum
[7] = biological target: M Alpha-1 Antitrypsin (M-AAT) (human) (UniProt P01009); assay: Western blot (denaturing SDS-PAGE, nitrocellulose) of purified M-AAT probed with the M-specific mAb, goat anti-mouse IgG-HRP, chemiluminescence
[8] = biological target: M Alpha-1 Antitrypsin (M-AAT) (human) (UniProt P01009); assay: dot blot, purified M-AAT (batch M1-2012, Zemaira, 3 ug by paragraph 67) on nitrocellulose, probed with the purified M-specific mAb, goat anti-mouse IgG-HRP, TBS-T
[9] = biological target: M Alpha-1 Antitrypsin (M-AAT) (human) (UniProt P01009); assay: native (non-denaturing) PAGE Western blot of M/M plasma, 0.161 ug AAT per lane, probed with the purified M-specific mAb, goat anti-mouse IgG-HRP, HEPES buffers without Tween 20

Measured: binding

B1: mouse monoclonal anti-M-AAT antibody (MAAT mAb) (antibody, V domains shown)
VH: QVQLQQPGAELVKPGAPVKLSCKASGYIFTSYWMNWVKQRPGRGLEWIGKIDPSDSETHYNQKFKDKATLTVDKSSSTAFIQLSSLTSEDSAVYYCVRSPGGYPDWWGQGTTLTVSS
VL: DITMTQSPSSIYASLGKRVTITCKASQDINSYLSWFQQKPGKSPKTLIYRANRLVDGVPSRFSGSGSGQDYSLTISSLEYEDMGIYYCLQYDEFPYTFGGGTKLEIKR
binds: [1] | [2] | [3] | [4] | [5] | [6] | [7] | [8] | [9]
